# Reference: paper doi:10.1101/2025.07.23.666269 (bioRxiv, 2025)
# Results are given in words; binding and its absence hold for the method and conditions named. Binding calls can cover weak binding; strength is not graded here.
# Target: T1, recombinant ɸ6 protein P1 (cystovirus ɸ6) (UniProt P11126)
# T1 sequence: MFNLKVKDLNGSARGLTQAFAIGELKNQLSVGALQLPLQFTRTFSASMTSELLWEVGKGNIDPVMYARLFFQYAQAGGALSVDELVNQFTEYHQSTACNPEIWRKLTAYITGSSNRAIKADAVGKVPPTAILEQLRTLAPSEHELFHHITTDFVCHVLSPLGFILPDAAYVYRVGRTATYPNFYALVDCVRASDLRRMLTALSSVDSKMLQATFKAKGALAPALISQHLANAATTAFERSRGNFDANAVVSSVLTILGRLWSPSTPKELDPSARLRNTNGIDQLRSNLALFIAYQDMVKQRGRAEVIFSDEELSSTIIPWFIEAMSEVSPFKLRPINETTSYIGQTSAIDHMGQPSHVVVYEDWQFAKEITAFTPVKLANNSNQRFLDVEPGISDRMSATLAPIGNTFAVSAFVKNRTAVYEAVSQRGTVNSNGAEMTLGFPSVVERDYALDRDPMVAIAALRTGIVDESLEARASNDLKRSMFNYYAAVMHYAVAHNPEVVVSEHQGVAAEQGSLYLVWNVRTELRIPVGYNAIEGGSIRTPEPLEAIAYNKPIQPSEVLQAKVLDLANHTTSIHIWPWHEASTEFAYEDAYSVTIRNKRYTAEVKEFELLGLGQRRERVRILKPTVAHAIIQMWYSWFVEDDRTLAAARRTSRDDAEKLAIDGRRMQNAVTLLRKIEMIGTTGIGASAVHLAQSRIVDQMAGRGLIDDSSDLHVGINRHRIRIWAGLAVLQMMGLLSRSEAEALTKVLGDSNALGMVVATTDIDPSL
# Assay: co-sedimentation
substance,measurement,value
"recombinant ɸ6 protein P7, full length (cystovirus ɸ6)",binding,binds
